Measurements reported in PubChem BioAssay AID1671195 (Yale University, 2021)

Purpose: 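Genes whose knockdown alters LDL uptake in liver cancer cells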 (primary screen)
Cell system: human Huh7 hepatoma cells
Reagents: siRNA pool against human genes, 18 nM
Duration: about 2 to 2.5 days of knockdown, then 8 h LDL uptake
Treatment: DiI-labelled LDL at 30 µg/ml for 8 h, in lipoprotein-deficient serum medium
Measured: 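Per-cell DiI-LDL intensity by automated imaging; well means scaled to the plate median and given as a robust z-score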
Scale: robust z-score: higher = more LDL uptake after knockdown
Hit rule: 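a gene counts as active if at least two replicate z-scores exceed ±2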
Here is one part, drawn at random, of about 22,000 reagents. About 1,510 of all reagents (6.9%) were called active. 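Active includes knockdowns raising or lowering LDL uptake; positive z-scores mean more uptake, negative mean less.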 Entries without a mark were called inactive.

gene knocked down | robust z-score, replicate 1 | robust z-score, replicate 2 | robust z-score, replicate 3
CARNMT1 (GeneID 138199) | 0.841 | -0.205 | -0.0948
MROH9 (GeneID 80133) | 0.642 | 1.08 | 0.767
FAM187B (GeneID 148109) | -0.374 | 0.0585 | -0.457
LOC440588 (retired record) (GeneID 440588) | -0.377 | -0.313 | -0.383
MCM7 (GeneID 4176) | -0.429 | 0.603 | 0.586
LOC440591 (retired record) (GeneID 440591) | 0.067 | -0.106 | -0.285
OTOG (GeneID 340990) | -0.842 | -0.044 | 0.0522
PUS3 (GeneID 83480) | 0.127 | 0.211 | -0.386
MED28 (GeneID 80306) | -0.17 | -0.098 | -0.17
CRIPTO (GeneID 6997) | -1.25 | 0.0677 | 1.61
CEP97 (GeneID 79598) | 1.24 | 1.28 | 1.5
CLEC6A (GeneID 93978) | -0.437 | -0.0605 | 0.0386
ANXA7 (GeneID 310) | 0.151 | -0.907 | -0.686
WDR7 (GeneID 23335) | 1.33 | -0.147 | 0.889
GKN1 (GeneID 56287) | 0.23 | -0.0348 | -0.00107
LOC441874 (retired record) (GeneID 441874) | -0.0593 | -0.246 | 0.0462
SAE1 (GeneID 10055) | -1.67 | -1.67 | -1.29
MARK2 (GeneID 2011) | 0.597 | -1.19 | -1.07
CTAGE14P (GeneID 401018) | -1.04 | -1.33 | -1.14
OTUD4 (GeneID 54726) | 0.162 | 2.18 | 0.291
ARHGEF16 (GeneID 27237) | -1.47 | -0.741 | -2.25
LGR5 (GeneID 8549) | -1.47 | -0.924 | -1.05
TJP1 (GeneID 7082) | 0.276 | 0.567 | 0.129
RAP1B (GeneID 5908) | 1.87 | 0.964 | 3.54
RPS27A (GeneID 6233) | -0.897 | -0.398 | -1.09
ITGBL1 (GeneID 9358) | 0.212 | -0.403 | 0.386
P2RY13 (GeneID 53829) | -1.58 | -1.07 | -0.907
LRRN1 (GeneID 57633) | 0.39 | -0.0126 | -0.0813
RFLNA (GeneID 144347) | -0.888 | -1.1 | -1.29
ACAT2 (GeneID 39) | 1.63 | 2.18 | 0.876
AGL (GeneID 178) | -0.634 | -0.476 | -0.653
ZXDB (GeneID 158586) | -1.13 | -0.965 | -0.875
CNTN3 (GeneID 5067) | 0.0172 | -0.873 | -0.788
B3GNT9 (GeneID 84752) | -0.734 | -0.931 | -1.14
MAPK8IP1 (GeneID 9479) | -0.343 | 0.041 | -1.31
CETN3 (GeneID 1070) | 0.766 | 0.745 | 0.81
LOC391711 (GeneID 391711) | 0.84 | 0.687 | 0.671
LOC341651 (retired record) (GeneID 341651) | 0.837 | 1.02 | 0.875
ATF7IP (GeneID 55729) | 1.58 | -0.162 | -0.554
FAM225B (GeneID 100128385) | 0.0539 | -0.106 | 0.326
HIC1 (GeneID 3090) | 0.0232 | -0.519 | -0.752
TUBE1 (GeneID 51175) | 0.3 | 0.863 | 0.837
USP38 (GeneID 84640) | 0.925 | 0.319 | 1.36
EIF2AK1 (GeneID 27102) | -0.754 | -0.326 | 0.00405
ADAMTS18 (GeneID 170692) | 2.14 (active) | 2.35 | 1.6
FNDC4 (GeneID 64838) | -0.559 | -0.465 | -0.0055
CFAP119 (GeneID 90835) | -0.634 | 0.0559 | 0.0442
PRDM15 (GeneID 63977) | 0.00188 | 0.129 | 0.492
EMC9 (GeneID 51016) | 1.02 | 1.36 | -0.563
SMG7 (GeneID 9887) | -0.339 | 1.64 | 1.35
TRIM9 (GeneID 114088) | -0.0604 | -1.3 | -0.915
MCRS1 (GeneID 10445) | 0.256 | 2.56 | -0.108
DLG5 (GeneID 9231) | -0.148 | -0.171 | -0.27
FMO2 (GeneID 2327) | -0.649 | 0.0808 | -0.728
CDH15 (GeneID 1013) | 1.84 | 0.715 | 0.57
MYL6B (GeneID 140465) | 0.708 | 0.42 | 0.995
LOC283166 (retired record) (GeneID 283166) | 0.0816 | 0.297 | 0.381
EPB42 (GeneID 2038) | 0.548 | 0.58 | -0.0299
SEPTIN2 (GeneID 4735) | 2.04 | -0.301 | 0.289
NCDN (GeneID 23154) | -0.743 | 0.678 | -0.635
OR2K2 (GeneID 26248) | 0.799 | 1.4 | -0.691
DMBT1L1 (GeneID 375940) | -0.648 | -0.888 | -0.756
HNRNPM (GeneID 4670) | -0.341 | -0.583 | -0.943
EBF4 (GeneID 57593) | -1.04 | -0.12 | 0.596
RTN2 (GeneID 6253) | 0.455 | -0.444 | -0.376
USP22 (GeneID 23326) | 1.24 | -0.106 | 1.43
HAND1 (GeneID 9421) | 2.2 | 1.41 | 1.74
ALDH1A1 (GeneID 216) | -1.04 | -0.62 | -1.15
